US7709454B2, “Methods and compositions for inhibiting tumorigenesis” (New York University, priority 1997, dated 2010)
At least one structure is not confirmed: it was looked up by name or label, or the drawing left a doubt.

Test system: HRAS (V12)-transfected WM-115, SK-MEL-2 and SK-MEL-5
Assay: oncogenic HRAS-transfection enhanced BrdU incorporation, treatment with inhibitors
Format: cell-based, human
Settings: 48 h treatment

For `C=C[C@@]1(C)CC(=O)[C@]2(O)[C@@]3(C)[C@@H](O)CCC(C)(C)[C@@H]3[C@H](O)[C@H](OC(C)=O)[C@@]2(C)O1` [Forskolin], the “effect on oncogenic RAS-enhanced proliferation” value was “reversed”.
